Reference: PubChem BioAssay AID1259315 (Drosophila RNAi Screening Center, 2017)
Assay: 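Genes that modify how toxic zinc chloride is to fly cells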 (primary screen). System: Drosophila S2R+ cells. Reagents: long dsRNA against Drosophila genes. Duration: 5 days (4 days knock-down, then 1 day with zinc). Conditions: zinc chloride added to 15 mM final for 1 day. Measured: 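ATP luminescence reflecting cell viability after 4 days of knock-down then 1 day with 15 mM zinc chloride; mean z-score of two replicate plates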. Direction: mean ATP z-score: higher = more ATP, more cells surviving zinc. Active means: 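a reagent is active if its z-score lies beyond 1.5 in either direction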.
Here is one part, drawn at random, of 418 deposited reagents. 17 of them (4.1%) count as active. 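z-scores average two replicate plates; all hits raised ATP and none lowered it.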 A number with no mark means an inactive call. Reagent sequences are not shown. Not stated in the record: the amount of reagent.

{"gene": "CG17544", "DRSC id": "DRSC02624", "mean ATP z-score": -0.195}
{"gene": "CG17544", "DRSC id": "DRSC25562", "mean ATP z-score": -0.342}
{"gene": "Vha68-1 (Vacuolar H[+] ATPase 68kD subunit 1)", "DRSC id": "DRSC03470", "mean ATP z-score": -0.142}
{"gene": "Vha68-1 (Vacuolar H[+] ATPase 68kD subunit 1)", "DRSC id": "DRSC31230", "mean ATP z-score": -0.144}
{"gene": "Vha68-1 (Vacuolar H[+] ATPase 68kD subunit 1)", "DRSC id": "DRSC40775", "mean ATP z-score": -0.274}
{"gene": "CG7300", "DRSC id": "DRSC03044", "mean ATP z-score": -0.399}
{"gene": "CG7300", "DRSC id": "DRSC28239", "mean ATP z-score": -0.354}
{"gene": "Sod1 (Superoxide dismutase 1)", "DRSC id": "DRSC11286", "mean ATP z-score": -0.254}
{"gene": "Sod1 (Superoxide dismutase 1)", "DRSC id": "DRSC34593", "mean ATP z-score": -0.274}
{"gene": "Sod1 (Superoxide dismutase 1)", "DRSC id": "DRSC40766", "mean ATP z-score": -0.316}
{"gene": "Ppt1 (Palmitoyl-protein thioesterase 1)", "DRSC id": "DRSC17806", "mean ATP z-score": -0.27}
{"gene": "Abcd1 (ATP binding cassette subfamily D member 1)", "DRSC id": "DRSC17157", "mean ATP z-score": 0.328}
{"gene": "Abcd1 (ATP binding cassette subfamily D member 1)", "DRSC id": "DRSC39677", "mean ATP z-score": -0.138}
{"gene": "CG3376", "DRSC id": "DRSC04362", "mean ATP z-score": -0.0417}
{"gene": "CG3376", "DRSC id": "DRSC26489", "mean ATP z-score": -0.361}
{"gene": "CG32191", "DRSC id": "DRSC10522", "mean ATP z-score": -0.228}
{"gene": "AP-1gamma (Adaptor Protein complex 1, gamma subunit)", "DRSC id": "DRSC18433", "mean ATP z-score": 0.0213}
{"gene": "AP-1gamma (Adaptor Protein complex 1, gamma subunit)", "DRSC id": "DRSC36403", "mean ATP z-score": -0.427}
{"gene": "CG7049", "DRSC id": "DRSC08587", "mean ATP z-score": -0.199}
{"gene": "CG7049", "DRSC id": "DRSC26356", "mean ATP z-score": -0.313}
{"gene": "CG31928", "DRSC id": "DRSC00293", "mean ATP z-score": -0.0901}
{"gene": "Gal (beta galactosidase)", "DRSC id": "DRSC03134", "mean ATP z-score": 0.434}
{"gene": "Gal (beta galactosidase)", "DRSC id": "DRSC24562", "mean ATP z-score": -0.239}
{"gene": "Acsl (Acyl-CoA synthetase long-chain)", "DRSC id": "DRSC07252", "mean ATP z-score": -0.0894}
{"gene": "Acsl (Acyl-CoA synthetase long-chain)", "DRSC id": "DRSC35814", "mean ATP z-score": -0.264}
{"gene": "CG12672", "DRSC id": "DRSC24282", "mean ATP z-score": -0.247}
{"gene": "Sgsh (N-sulfoglucosamine sulfohydrolase)", "DRSC id": "DRSC14771", "mean ATP z-score": 0.104}
{"gene": "Vps20 (Vacuolar protein sorting 20)", "DRSC id": "DRSC04448", "mean ATP z-score": -0.408}
{"gene": "Vps20 (Vacuolar protein sorting 20)", "DRSC id": "DRSC36248", "mean ATP z-score": -0.246}
{"gene": "Vps20 (Vacuolar protein sorting 20)", "DRSC id": "DRSC36249", "mean ATP z-score": -0.244}
{"gene": "Ctr1A (Copper transporter 1A)", "DRSC id": "DRSC18336", "mean ATP z-score": 0.0335}
{"gene": "Ctr1A (Copper transporter 1A)", "DRSC id": "DRSC40310", "mean ATP z-score": -0.113}
{"gene": "Ctr1A (Copper transporter 1A)", "DRSC id": "DRSC40902", "mean ATP z-score": -0.041}
{"gene": "betaGlu (beta glucuronidase)", "DRSC id": "DRSC24889", "mean ATP z-score": -0.361}
{"gene": "betaGlu (beta glucuronidase)", "DRSC id": "DRSC39080", "mean ATP z-score": -0.335}
{"gene": "betaGlu (beta glucuronidase)", "DRSC id": "DRSC41080", "mean ATP z-score": -0.291}
{"gene": "Ect3 (Ectoderm-expressed 3)", "DRSC id": "DRSC15462", "mean ATP z-score": -0.148}
{"gene": "Ect3 (Ectoderm-expressed 3)", "DRSC id": "DRSC25392", "mean ATP z-score": -0.456}
{"gene": "Ect3 (Ectoderm-expressed 3)", "DRSC id": "DRSC35713", "mean ATP z-score": -0.348}
{"gene": "CG1607", "DRSC id": "DRSC15130", "mean ATP z-score": -0.177}
{"gene": "CG1607", "DRSC id": "DRSC27010", "mean ATP z-score": -0.27}
{"gene": "CG15534", "DRSC id": "DRSC15070", "mean ATP z-score": -0.225}
{"gene": "CG15534", "DRSC id": "DRSC26433", "mean ATP z-score": -0.087}
{"gene": "TrpRS-m (Tryptophanyl-tRNA synthetase, mitochondrial)", "DRSC id": "DRSC10848", "mean ATP z-score": "2.05 (active)"}
{"gene": "TrpRS-m (Tryptophanyl-tRNA synthetase, mitochondrial)", "DRSC id": "DRSC40413", "mean ATP z-score": -0.509}
{"gene": "Ppt2 (Palmitoyl-protein Thioesterase 2)", "DRSC id": "DRSC02786", "mean ATP z-score": -0.0978}
{"gene": "Ppt2 (Palmitoyl-protein Thioesterase 2)", "DRSC id": "DRSC26027", "mean ATP z-score": -0.353}
{"gene": "Ppt2 (Palmitoyl-protein Thioesterase 2)", "DRSC id": "DRSC41066", "mean ATP z-score": -0.263}
